Test results: PubChem BioAssay AID248 (DTP/NCI, 2004)
The list shows only some results of the screen, not a fair sample: it gathers some chemical classes. Not every dose and run of a compound is shown. T/C gives the treated animals as a percentage of the vehicle group. Where survival is the endpoint, this PubChem deposit counts one and a half times the control or more as active, and values a quarter to a half above the control carry no call in these data; other NCI protocols may use other cut-offs. Schedule codes are those of the source, read here as Q, the interval in days (D) or hours (H), X, the number of doses. Some entries show no survivor count and are marked so; the dose need not have been tolerated. Some entries hold several experiments; the values are given in rising order.

Test system: L1210 leukemia ip in BDF1 mice, survival T/C
Experiment: NCI In Vivo Anticancer Drug Screen. Data for tumor model L1210 Leukemia (intraperitoneal) in B6D2F1 (BDF1) mice
Settings: higher T/C = longer survival

`CC(=O)OCC12CCC(C)=CC1OC1C(O)C(OC(C)=O)C2(C)C12CO2` (stereo not given) was tested, and the T/C (T/C endpoint: mean survival time, dose: 2.0 mg/kg/injection, schedule: Q08DX002 (ip), vehicle: saline) was 100 % of control [survivor count not shown], the T/C (T/C endpoint: mean survival time, dose: 3.2 mg/kg/injection, schedule: Q01DX009 (ip), vehicle: other) was 101 % of control [survivor count not shown] and the T/C (T/C endpoint: mean survival time, dose: 3.2 mg/kg/injection, schedule: Q01DX013 (im), vehicle: saline) was 108 % of control [survivor count not shown]. The T/C (T/C endpoint: mean survival time, dose: 3.2 mg/kg/injection, schedule: Q01DX013 (ip), vehicle: saline) was 144 % of control [survivor count not shown], the T/C (T/C endpoint: mean survival time, dose: 3.2 mg/kg/injection, schedule: Q01DX013 (oral), vehicle: saline) was 151 % of control [survivor count not shown] and the T/C (T/C endpoint: mean survival time, dose: 3.2 mg/kg/injection, schedule: Q01DX013 (sc), vehicle: saline) was 101 % of control [survivor count not shown]. The T/C (T/C endpoint: mean survival time, dose: 4.0 mg/kg/injection, schedule: Q01DX001 (ip), vehicle: saline, evaluated on day 30) was 118 % of control [survivor count not shown], the T/C (T/C endpoint: mean survival time, dose: 4.0 mg/kg/injection, schedule: Q01DX001 (ip), vehicle: saline, evaluated on day 60) was 107 % of control [survivor count not shown] and the T/C (T/C endpoint: mean survival time, dose: 4.0 mg/kg/injection, schedule: Q01DX001 (oral), vehicle: saline) was 106 % of control [survivor count not shown]. For the same molecule, the T/C (T/C endpoint: mean survival time, dose: 4.0 mg/kg/injection, schedule: Q01DX001 (sc), vehicle: saline) was 113 % of control [survivor count not shown], the T/C (T/C endpoint: mean survival time, dose: 4.0 mg/kg/injection, schedule: Q01DX009 (ip), vehicle: saline, evaluated on day 30) was 127 % of control [survivor count not shown] and the T/C (T/C endpoint: mean survival time, dose: 4.0 mg/kg/injection, schedule: Q01DX009 (ip), vehicle: saline, evaluated on day 60) was 141 % of control [survivor count not shown]. The T/C (T/C endpoint: mean survival time, dose: 4.0 mg/kg/injection, schedule: Q01DX009 (sc), vehicle: saline) was 115 % of control [survivor count not shown], the T/C (T/C endpoint: mean survival time, dose: 4.0 mg/kg/injection, schedule: Q02DX005 (ip), vehicle: saline) was 127 % of control [survivor count not shown] and the T/C (T/C endpoint: mean survival time, dose: 4.0 mg/kg/injection, schedule: Q03DX003 (ip), vehicle: other) was 96 % of control [survivor count not shown]. The T/C (T/C endpoint: mean survival time, dose: 4.0 mg/kg/injection, schedule: Q04DX003 (ip), vehicle: saline, evaluated on day 30) was 120 % of control [survivor count not shown], the T/C (T/C endpoint: mean survival time, dose: 4.0 mg/kg/injection, schedule: Q04DX003 (ip), vehicle: saline, evaluated on day 60) was 100 % of control [survivor count not shown] and the T/C (T/C endpoint: mean survival time, dose: 4.0 mg/kg/injection, schedule: Q05DX001 (ip), vehicle: saline) was 111 % of control [survivor count not shown]. The T/C (T/C endpoint: mean survival time, dose: 4.0 mg/kg/injection, schedule: Q08DX002 (ip), vehicle: saline) was 114 % of control [survivor count not shown], the T/C (T/C endpoint: mean survival time, dose: 4.7 mg/kg/injection, schedule: Q01DX009 (ip), vehicle: saline with Tween-80) was 136 % of control [survivor count not shown] and the T/C (T/C endpoint: mean survival time, dose: 6.4 mg/kg/injection, schedule: Q01DX013 (im), vehicle: saline) was 94 % of control [survivor count not shown]. The T/C (T/C endpoint: mean survival time, dose: 6.4 mg/kg/injection, schedule: Q01DX013 (ip), vehicle: saline) was 116 % of control [survivor count not shown], the T/C (T/C endpoint: mean survival time, dose: 7.0 mg/kg/injection, schedule: Q01DX009 (ip), vehicle: saline with Tween-80) was 132 % of control [survivor count not shown] and the T/C (T/C endpoint: mean survival time, dose: 8.0 mg/kg/injection, schedule: Q01DX001 (ip), vehicle: saline, evaluated on day 30) was 113 % of control [survivor count not shown]. For the same molecule, the T/C (T/C endpoint: mean survival time, dose: 8.0 mg/kg/injection, schedule: Q01DX001 (ip), vehicle: saline, evaluated on day 60) was 109 % of control [survivor count not shown], the T/C (T/C endpoint: mean survival time, dose: 8.0 mg/kg/injection, schedule: Q01DX001 (oral), vehicle: saline) was 108 % of control [survivor count not shown] and the T/C (T/C endpoint: mean survival time, dose: 8.0 mg/kg/injection, schedule: Q01DX009 (ip), vehicle: acetone) was 105 % of control [survivor count not shown]. For the same molecule, the T/C (T/C endpoint: mean survival time, dose: 8.0 mg/kg/injection, schedule: Q01DX009 (ip), vehicle: saline) was 118 % of control [survivor count not shown], the T/C (T/C endpoint: mean survival time, dose: 8.0 mg/kg/injection, schedule: Q01DX009 (sc), vehicle: saline) was 90 % of control [survivor count not shown] and the T/C (T/C endpoint: mean survival time, dose: 8.0 mg/kg/injection, schedule: Q02DX005 (ip), vehicle: saline) was 127 % of control [survivor count not shown]. For the same molecule, the T/C (T/C endpoint: mean survival time, dose: 8.0 mg/kg/injection, schedule: Q04DX003 (ip), vehicle: saline, evaluated on day 30) was 122 % of control [survivor count not shown], the T/C (T/C endpoint: mean survival time, dose: 8.0 mg/kg/injection, schedule: Q04DX003 (ip), vehicle: saline, evaluated on day 60) was 103 % of control [survivor count not shown] and the T/C (T/C endpoint: mean survival time, dose: 8.0 mg/kg/injection, schedule: Q04DX003 (oral), vehicle: saline) was 141 % of control [survivor count not shown]. For the same molecule, the T/C (T/C endpoint: mean survival time, dose: 8.0 mg/kg/injection, schedule: Q05DX001 (ip), vehicle: saline) was 111 % of control [survivor count not shown], the T/C (T/C endpoint: mean survival time, dose: 8.0 mg/kg/injection, schedule: Q08DX002 (ip), vehicle: saline) was 111 % of control [survivor count not shown] and the T/C (T/C endpoint: mean survival time, dose: 10.5 mg/kg/injection, schedule: Q01DX009 (ip), vehicle: saline with Tween-80) was 111 % of control [survivor count not shown]. For the same molecule, the T/C (T/C endpoint: mean survival time, dose: 62.5 micrograms/kg/injection, schedule: Q03HX008 (ip), vehicle: saline) was 105 % of control [survivor count not shown], the T/C (T/C endpoint: mean survival time, dose: 62.5 micrograms/kg/injection, schedule: Q03HX016 (ip), vehicle: saline) was 100 % of control [survivor count not shown] and the T/C (T/C endpoint: mean survival time, dose: 125.0 micrograms/kg/injection, schedule: Q03HX008 (ip), vehicle: saline) was 114 % of control [survivor count not shown]. For the same molecule, the T/C (T/C endpoint: mean survival time, dose: 125.0 micrograms/kg/injection, schedule: Q03HX016 (ip), vehicle: saline) was 109 % of control [survivor count not shown], the T/C (T/C endpoint: mean survival time, dose: 125.0 micrograms/kg/injection, schedule: Q03HX024 (ip), vehicle: saline) was 112 % of control [survivor count not shown] and the T/C (T/C endpoint: mean survival time, dose: 250.0 micrograms/kg/injection, schedule: Q03HX008 (ip), vehicle: saline) was 109 % of control [survivor count not shown]. For the same molecule, the T/C (T/C endpoint: mean survival time, dose: 250.0 micrograms/kg/injection, schedule: Q03HX016 (ip), vehicle: saline) was 117 % of control [survivor count not shown], the T/C (T/C endpoint: mean survival time, dose: 250.0 micrograms/kg/injection, schedule: Q03HX024 (ip), vehicle: saline) was 115 % of control [survivor count not shown] and the T/C (T/C endpoint: mean survival time, dose: 500.0 micrograms/kg/injection, schedule: Q03HX008 (ip), vehicle: saline) was 116 % of control [survivor count not shown]. For the same molecule, the T/C (T/C endpoint: mean survival time, dose: 500.0 micrograms/kg/injection, schedule: Q03HX016 (ip), vehicle: saline) was 123 % of control [survivor count not shown], the T/C (T/C endpoint: mean survival time, dose: 500.0 micrograms/kg/injection, schedule: Q03HX024 (ip), vehicle: saline) was 135 % of control [survivor count not shown] and the T/C (T/C endpoint: mean survival time, dose: 1000.0 micrograms/kg/injection, schedule: Q03HX024 (ip), vehicle: saline) was 142 % of control [survivor count not shown]. The T/C (T/C endpoint: median survival time, dose: 0.05 mg/kg/injection, schedule: Q01DX009 (ip), vehicle: saline) was 100 [survivor count not shown] and 105 % of control [survivor count not shown], the T/C (T/C endpoint: median survival time, dose: 0.1 mg/kg/injection, schedule: Q01DX009 (ip), vehicle: saline) was 110 [survivor count not shown] and 157 % of control [survivor count not shown] and the T/C (T/C endpoint: median survival time, dose: 0.2 mg/kg/injection, schedule: Q01DX009 (ip), vehicle: saline) was 115 % of control [survivor count not shown]. The T/C (T/C endpoint: median survival time, dose: 0.4 mg/kg/injection, schedule: Q01DX009 (ip), vehicle: saline) was 110 [survivor count not shown] and 135 % of control [survivor count not shown], the T/C (T/C endpoint: median survival time, dose: 0.5 mg/kg/injection, schedule: Q01DX009 (ip), vehicle: saline, evaluated on day 5) was 115 % of control [survivor count not shown] and the T/C (T/C endpoint: median survival time, dose: 0.5 mg/kg/injection, schedule: Q01DX009 (ip), vehicle: saline, evaluated on day 19) was 110 % of control [survivor count not shown]. The T/C (T/C endpoint: median survival time, dose: 0.5 mg/kg/injection, schedule: Q01DX009 (ip), vehicle: saline, evaluated on day 30) was 110 % of control [survivor count not shown], the T/C (T/C endpoint: median survival time, dose: 0.8 mg/kg/injection, schedule: Q01DX009 (ip), vehicle: saline) was 126 [survivor count not shown] and 135 % of control [survivor count not shown] and the T/C (T/C endpoint: median survival time, dose: 1.0 mg/kg/injection, schedule: Q01DX009 (ip), vehicle: saline, evaluated on day 5) was 120 % of control [survivor count not shown]. For the same molecule, the T/C (T/C endpoint: median survival time, dose: 1.0 mg/kg/injection, schedule: Q01DX009 (ip), vehicle: saline, evaluated on day 19) was 126 % of control [survivor count not shown], the T/C (T/C endpoint: median survival time, dose: 1.0 mg/kg/injection, schedule: Q01DX009 (ip), vehicle: saline, evaluated on day 30) was 120 % of control [survivor count not shown] and the T/C (T/C endpoint: median survival time, dose: 1.6 mg/kg/injection, schedule: Q01DX009 (ip), vehicle: saline) was 142 [survivor count not shown] and 157 % of control [survivor count not shown]. For the same molecule, the T/C (T/C endpoint: median survival time, dose: 2.0 mg/kg/injection, schedule: Q01DX009 (ip), vehicle: saline, evaluated on day 5) was 121 % of control [survivor count not shown], the T/C (T/C endpoint: median survival time, dose: 2.0 mg/kg/injection, schedule: Q01DX009 (ip), vehicle: saline, evaluated on day 19) was 136 % of control [survivor count not shown] and the T/C (T/C endpoint: median survival time, dose: 2.0 mg/kg/injection, schedule: Q01DX009 (ip), vehicle: saline, evaluated on day 30) was 105 % of control [survivor count not shown]. For the same molecule, the T/C (T/C endpoint: median survival time, dose: 2.0 mg/kg/injection, schedule: Q04DX003 (ip), vehicle: saline) was 108 % of control [survivor count not shown], the T/C (T/C endpoint: median survival time, dose: 4.0 mg/kg/injection, schedule: Q01DX009 (ip), vehicle: saline, evaluated on day 19) was 100 % of control [survivor count not shown] and the T/C (T/C endpoint: median survival time, dose: 4.0 mg/kg/injection, schedule: Q04DX003 (ip), vehicle: saline, evaluated on day 35) was 109 % of control [survivor count not shown]. For the same molecule, the T/C (T/C endpoint: median survival time, dose: 4.0 mg/kg/injection, schedule: Q04DX003 (ip), vehicle: saline, evaluated on day 60) was 117 % of control [survivor count not shown], the T/C (T/C endpoint: median survival time, dose: 8.0 mg/kg/injection, schedule: Q04DX003 (ip), vehicle: saline, evaluated on day 35) was 111 % of control [survivor count not shown] and the T/C (T/C endpoint: median survival time, dose: 8.0 mg/kg/injection, schedule: Q04DX003 (ip), vehicle: saline, evaluated on day 60) was 120 % of control [survivor count not shown]. For the same molecule, the T/C (T/C endpoint: median survival time, dose: 16.0 mg/kg/injection, schedule: Q04DX003 (ip), vehicle: saline) was 126 % of control [survivor count not shown].
